Reference: PubChem BioAssay AID2417 (National Center for Advancing Translational Sciences (NCATS), 2010)
About 4,300 (3.1%) of roughly 140,000 compounds were called active. Inconclusive means that the source gave no clear call. Such entries were picked first, then a sample of the others.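 Rule for the calls: active = readout at or below -70, meaning at least 70% loss of cells showing the perinucleolar compartment, a nuclear body marking cancer cells; inconclusive = readout between -30 and a set limit; inactive = the rest.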

Assay: High Content Assay for Compounds that inhibit the Assembly of the Perinucleolar Compartment;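 note: plate controls were DMSO wells for no effect and camptothecin positive control wells for full effect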
Settings: PC3M PTB-GFP, PNC prevalence imaging, 16 h; at 10 µM; active compounds read low
Outline: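 PC3M cells stably expressing PTB-GFP, 750–1000 cells/well, treated 16 h at 37 °C with compound (23 nl of library stock), in duplicate. After paraformaldehyde fixation and Hoechst stain, imaged at 20x; PNC prevalence scored by image analysis.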

| SMILES | activity change (PNC), negative = inhibition |
| --- | --- |
| NS(=O)(=O)c1ccc(NC(=S)Nc2cc(Cl)c(Cl)cc2Cl)cc1 | inconclusive: -56.9% |
| O=C(Cc1cccs1)NCc1ccccc1 | inactive: -3.78% |
| Cc1ccc(S(=O)(=O)N(CCCO)CC(O)CON=C2c3ccccc3-c3ccccc32)cc1 (stereo unspecified) | inactive: 32.2% |
| COc1cccc(C(=O)N2CCN(C(=O)c3cccc(F)c3)CC2)c1 | inactive: -5.62% |
| CCN1CN(Cc2ccco2)CNC1=S | active: -81.9% |
| O=C1CCCC(O)=C1N=Nc1ccc2c(c1)OCO2 | inactive: -16.2% |
| CCOC(=O)c1c(NC(C)=O)no[n+]1[O-] | inconclusive: -54.5% |
| CC(O)/C=C/c1cccc[n+]1C (stereo unspecified) | inconclusive: -66.8% |
| CCc1nc(SCC(=O)N2c3ccccc3CC2C)c2c(C)c(C)sc2n1 (stereo unspecified) | inconclusive: -79.9% |
| COC(=O)c1ccc(C(=O)OC)c(NC(=S)N2CCN(c3cc(Cl)ccc3C)CC2)c1 | inconclusive: -47% |
| Cc1ccc(C(=O)NC(NC(=O)c2ccc(C)cc2)c2cccc([N+](=O)[O-])c2)cc1 | inactive: 37% |
| Cn1c(SCC(=O)c2ccc(-c3ccccc3)cc2)nnc1-c1ccco1 | inconclusive: -76.9% |
| O=C(Nc1cccc2ccccc12)N1CCc2ccccc2C1 | inconclusive: -33% |
| Cc1ccc(NS(=O)(=O)c2ccc(OCC(=O)Nc3cccc([N+](=O)[O-])c3)c(C)c2)cc1 | inactive: 47.4% |
| CCOc1cc(-c2ccccc2)nc(N)n1 | inconclusive: -45.3% |
| Cc1ccccc1Oc1ncccc1C(=O)/C(C#N)=C/N(C)C | inconclusive: -59.8% |
| COC(=O)c1cc(Nc2cc(C)nc3ncnn23)cc(C(=O)OC)c1 | inactive: 6.05% |
| Cc1ccccc1C(=O)NC(=S)Nc1ccc(S(=O)(=O)N2CCOCC2)cc1 | inconclusive: -38.9% |
| Cc1nnc(SC(C)C(=O)NC2CCCc3ccccc32)n1-c1ccccc1 (stereo unspecified) | inconclusive: -31.5% |
| COc1ccc(N2C(=O)C(CC(=O)Nc3ccccc3)N(Cc3ccc4c(c3)OCO4)C2=O)cc1 (stereo unspecified) | inconclusive: -30.7% |
| Fc1ccc(NC(=S)NN=C2CCCCCC2)cc1 | inconclusive: -52.7% |
| CC(C)Oc1ccc(C2c3c(oc4ccccc4c3=O)C(=O)N2CCCN2CCOCC2)cc1 (stereo unspecified) | inactive: 33% |
| C/C=C/C(=O)OCC(=O)Nc1c(Cl)cccc1Cl | inactive: 7.26% |
| CC(C)(C)c1ccc(-c2nc(C=O)c3ccccn23)cc1 | inactive: -13.2% |
| Cc1c(N=Cc2ccc[nH]2)c(=O)n(-c2ccccc2)n1C | inactive: 36.7% |
| CS(=O)(=O)N(CC(=O)N1CCN(c2ccccc2)CC1)c1cc(C(F)(F)F)ccc1Cl | inconclusive: -35.6% |

Arranged by SMILES length (low to high): some entries from above

| SMILES | activity change (PNC), negative = inhibition |
| --- | --- |
| CC(O)/C=C/c1cccc[n+]1C (stereo unspecified) | inconclusive: -66.8% |
| Fc1ccc(NC(=S)NN=C2CCCCCC2)cc1 | inconclusive: -52.7% |
| Cc1ccc(NS(=O)(=O)c2ccc(OCC(=O)Nc3cccc([N+](=O)[O-])c3)c(C)c2)cc1 | inactive: 47.4% |
